± gives the standard deviation of the averaged measurements. Only a part is listed here, and it is no random draw. Small differences around the control level are noise.
Compound: Nc1ncnc2c1ncn2[C@@H]1O[C@H](COP(=O)(O)OP(=O)(O)OP(=O)(O)O)[C@@H](O)[C@H]1O [adenosine triphosphate]
Experiment: NP40-soluble protein abundance relative to vehicle (solubility fold change) (ratio); higher = more soluble protein in presence of ATP
How it was run: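 Jurkat crude lysate (Dounce-homogenised) was treated with eight concentrations from 0.1 to 10 mM for 10 min at room temperature, then 3 min at 37 °C. It was solubilised with 0.8% NP40 and benzonase (60 min, 4 °C) and ultracentrifuged, and the supernatant was TMT-labelled for LC-MS/MS. Intensities were vsn-normalised, and the value is the fold change against the NP40-processed vehicle per replicate, from three independent experiments.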

Protein sequences, listed by entry. Tags and fused reporters are not part of them. Lines headed by an entry give the natural chain unless they say otherwise; changes in a name come on top.
UniProt P43307: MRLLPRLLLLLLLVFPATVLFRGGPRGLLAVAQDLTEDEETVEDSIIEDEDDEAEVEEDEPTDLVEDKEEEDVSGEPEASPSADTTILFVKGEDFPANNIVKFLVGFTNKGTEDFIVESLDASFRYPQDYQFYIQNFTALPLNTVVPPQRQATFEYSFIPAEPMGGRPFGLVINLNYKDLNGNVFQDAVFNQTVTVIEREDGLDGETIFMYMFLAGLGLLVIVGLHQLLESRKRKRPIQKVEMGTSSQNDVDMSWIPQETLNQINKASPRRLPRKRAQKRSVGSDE
UniProt Q9Y4K1: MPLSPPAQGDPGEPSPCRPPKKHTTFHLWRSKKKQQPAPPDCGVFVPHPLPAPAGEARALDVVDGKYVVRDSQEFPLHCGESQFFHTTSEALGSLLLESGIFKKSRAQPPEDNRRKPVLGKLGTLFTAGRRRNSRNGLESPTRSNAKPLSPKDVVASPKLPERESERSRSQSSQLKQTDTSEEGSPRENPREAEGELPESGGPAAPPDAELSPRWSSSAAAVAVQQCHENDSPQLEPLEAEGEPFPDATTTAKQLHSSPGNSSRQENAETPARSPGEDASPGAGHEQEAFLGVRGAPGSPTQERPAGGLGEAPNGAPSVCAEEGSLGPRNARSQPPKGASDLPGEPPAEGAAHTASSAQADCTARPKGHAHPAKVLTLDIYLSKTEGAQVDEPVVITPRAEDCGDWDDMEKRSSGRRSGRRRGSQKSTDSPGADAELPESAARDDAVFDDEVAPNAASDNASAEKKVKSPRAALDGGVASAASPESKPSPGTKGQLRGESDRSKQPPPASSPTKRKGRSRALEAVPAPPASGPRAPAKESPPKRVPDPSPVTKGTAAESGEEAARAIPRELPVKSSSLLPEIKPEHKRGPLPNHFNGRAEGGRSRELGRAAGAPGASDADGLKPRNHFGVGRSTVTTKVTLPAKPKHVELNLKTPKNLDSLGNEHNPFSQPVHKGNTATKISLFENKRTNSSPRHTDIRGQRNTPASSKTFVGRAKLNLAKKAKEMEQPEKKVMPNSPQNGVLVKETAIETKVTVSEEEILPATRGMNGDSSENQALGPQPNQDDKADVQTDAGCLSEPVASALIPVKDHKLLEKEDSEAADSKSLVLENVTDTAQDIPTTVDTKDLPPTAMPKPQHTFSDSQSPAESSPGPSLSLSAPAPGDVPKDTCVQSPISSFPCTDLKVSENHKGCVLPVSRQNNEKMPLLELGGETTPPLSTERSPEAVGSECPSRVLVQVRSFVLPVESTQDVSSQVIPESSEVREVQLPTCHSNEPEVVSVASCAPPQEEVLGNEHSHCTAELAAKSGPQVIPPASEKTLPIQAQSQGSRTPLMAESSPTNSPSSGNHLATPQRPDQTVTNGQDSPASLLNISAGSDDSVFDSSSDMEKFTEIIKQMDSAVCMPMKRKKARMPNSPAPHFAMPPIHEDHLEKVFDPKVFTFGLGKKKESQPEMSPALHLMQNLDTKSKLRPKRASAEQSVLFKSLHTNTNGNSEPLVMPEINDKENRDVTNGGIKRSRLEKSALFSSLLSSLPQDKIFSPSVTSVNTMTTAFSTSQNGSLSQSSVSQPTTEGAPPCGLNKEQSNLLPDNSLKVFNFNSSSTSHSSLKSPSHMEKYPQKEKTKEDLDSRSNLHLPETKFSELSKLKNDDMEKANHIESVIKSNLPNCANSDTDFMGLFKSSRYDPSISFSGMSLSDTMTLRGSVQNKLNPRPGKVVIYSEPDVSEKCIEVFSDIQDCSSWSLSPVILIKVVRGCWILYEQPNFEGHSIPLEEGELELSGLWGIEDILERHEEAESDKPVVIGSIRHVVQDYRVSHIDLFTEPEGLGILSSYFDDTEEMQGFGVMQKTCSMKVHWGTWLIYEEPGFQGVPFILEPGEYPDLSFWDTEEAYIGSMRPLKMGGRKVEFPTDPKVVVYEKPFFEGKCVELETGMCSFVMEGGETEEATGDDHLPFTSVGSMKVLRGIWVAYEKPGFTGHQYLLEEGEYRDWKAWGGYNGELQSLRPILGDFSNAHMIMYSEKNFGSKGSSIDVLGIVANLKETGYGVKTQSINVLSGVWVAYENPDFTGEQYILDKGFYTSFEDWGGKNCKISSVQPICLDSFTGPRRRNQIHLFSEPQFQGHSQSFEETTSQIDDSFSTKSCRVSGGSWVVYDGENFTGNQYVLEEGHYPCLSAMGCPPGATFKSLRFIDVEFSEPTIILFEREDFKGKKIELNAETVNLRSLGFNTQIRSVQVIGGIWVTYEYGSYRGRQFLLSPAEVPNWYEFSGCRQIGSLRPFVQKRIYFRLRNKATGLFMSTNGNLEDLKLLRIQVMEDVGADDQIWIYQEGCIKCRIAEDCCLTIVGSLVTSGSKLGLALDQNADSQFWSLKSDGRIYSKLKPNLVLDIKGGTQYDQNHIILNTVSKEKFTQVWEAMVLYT
UniProt P55145: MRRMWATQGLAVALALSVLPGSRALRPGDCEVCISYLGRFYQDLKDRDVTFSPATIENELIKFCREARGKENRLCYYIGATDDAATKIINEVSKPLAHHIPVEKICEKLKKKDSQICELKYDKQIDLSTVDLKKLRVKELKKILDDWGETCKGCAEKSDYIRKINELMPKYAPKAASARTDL
UniProt Q9Y228: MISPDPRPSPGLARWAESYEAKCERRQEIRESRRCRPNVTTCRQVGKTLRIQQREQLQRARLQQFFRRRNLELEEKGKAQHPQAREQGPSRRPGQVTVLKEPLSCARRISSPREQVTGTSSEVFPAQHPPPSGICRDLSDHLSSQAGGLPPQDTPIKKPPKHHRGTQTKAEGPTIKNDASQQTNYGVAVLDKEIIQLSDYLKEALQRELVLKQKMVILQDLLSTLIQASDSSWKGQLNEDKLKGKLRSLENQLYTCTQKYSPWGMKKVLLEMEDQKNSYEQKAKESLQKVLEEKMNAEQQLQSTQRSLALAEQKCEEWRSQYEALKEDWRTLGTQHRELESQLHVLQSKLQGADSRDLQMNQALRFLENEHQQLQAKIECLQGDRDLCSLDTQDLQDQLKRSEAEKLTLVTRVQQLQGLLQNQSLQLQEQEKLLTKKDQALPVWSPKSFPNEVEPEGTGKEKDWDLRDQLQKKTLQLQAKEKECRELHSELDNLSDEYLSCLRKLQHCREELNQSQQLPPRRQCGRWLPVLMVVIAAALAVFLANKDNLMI
UniProt Q9UKY7: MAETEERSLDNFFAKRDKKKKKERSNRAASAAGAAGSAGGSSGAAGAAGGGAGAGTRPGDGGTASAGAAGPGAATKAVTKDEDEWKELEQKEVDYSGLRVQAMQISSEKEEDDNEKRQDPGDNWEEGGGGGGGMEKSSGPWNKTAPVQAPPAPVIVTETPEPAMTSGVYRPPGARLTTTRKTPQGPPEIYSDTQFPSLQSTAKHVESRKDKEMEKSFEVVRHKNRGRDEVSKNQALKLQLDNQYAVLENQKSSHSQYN
UniProt Q9H0E9, whole entry: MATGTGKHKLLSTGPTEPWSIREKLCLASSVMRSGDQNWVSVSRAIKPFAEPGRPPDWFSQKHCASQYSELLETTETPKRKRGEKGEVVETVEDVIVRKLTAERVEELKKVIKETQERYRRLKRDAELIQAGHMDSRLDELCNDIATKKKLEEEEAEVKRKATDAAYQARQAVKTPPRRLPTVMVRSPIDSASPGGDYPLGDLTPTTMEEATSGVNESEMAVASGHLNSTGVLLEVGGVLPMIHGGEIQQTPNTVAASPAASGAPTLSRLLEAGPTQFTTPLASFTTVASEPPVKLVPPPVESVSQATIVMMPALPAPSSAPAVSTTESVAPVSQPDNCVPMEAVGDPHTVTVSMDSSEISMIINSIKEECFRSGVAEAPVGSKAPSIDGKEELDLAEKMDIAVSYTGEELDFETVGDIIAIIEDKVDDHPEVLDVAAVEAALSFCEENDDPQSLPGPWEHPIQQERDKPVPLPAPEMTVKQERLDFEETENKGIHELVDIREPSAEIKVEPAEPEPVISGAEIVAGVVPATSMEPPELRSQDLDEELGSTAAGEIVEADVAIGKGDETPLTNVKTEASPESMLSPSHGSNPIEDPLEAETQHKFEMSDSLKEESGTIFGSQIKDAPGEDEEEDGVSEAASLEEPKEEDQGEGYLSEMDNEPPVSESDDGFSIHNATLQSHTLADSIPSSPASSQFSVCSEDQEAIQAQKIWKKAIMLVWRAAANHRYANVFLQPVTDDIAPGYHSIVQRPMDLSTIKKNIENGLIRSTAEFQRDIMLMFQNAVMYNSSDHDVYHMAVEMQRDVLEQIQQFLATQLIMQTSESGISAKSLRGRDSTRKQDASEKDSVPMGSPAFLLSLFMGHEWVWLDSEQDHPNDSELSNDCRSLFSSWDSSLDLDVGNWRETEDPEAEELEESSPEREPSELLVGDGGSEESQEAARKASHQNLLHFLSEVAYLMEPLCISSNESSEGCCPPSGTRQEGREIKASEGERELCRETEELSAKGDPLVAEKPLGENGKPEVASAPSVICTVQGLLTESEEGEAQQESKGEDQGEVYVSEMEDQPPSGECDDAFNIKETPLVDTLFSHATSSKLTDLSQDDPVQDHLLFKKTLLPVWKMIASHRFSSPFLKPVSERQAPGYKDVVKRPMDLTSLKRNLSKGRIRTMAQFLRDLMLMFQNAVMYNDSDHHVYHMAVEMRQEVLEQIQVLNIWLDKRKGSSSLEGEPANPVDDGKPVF
UniProt Q9Y6G5, whole entry: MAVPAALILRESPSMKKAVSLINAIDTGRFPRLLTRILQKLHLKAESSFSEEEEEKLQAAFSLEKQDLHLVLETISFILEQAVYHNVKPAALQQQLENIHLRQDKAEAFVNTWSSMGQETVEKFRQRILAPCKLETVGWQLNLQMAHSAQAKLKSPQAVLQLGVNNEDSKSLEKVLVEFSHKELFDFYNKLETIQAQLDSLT
UniProt Q5T8D3: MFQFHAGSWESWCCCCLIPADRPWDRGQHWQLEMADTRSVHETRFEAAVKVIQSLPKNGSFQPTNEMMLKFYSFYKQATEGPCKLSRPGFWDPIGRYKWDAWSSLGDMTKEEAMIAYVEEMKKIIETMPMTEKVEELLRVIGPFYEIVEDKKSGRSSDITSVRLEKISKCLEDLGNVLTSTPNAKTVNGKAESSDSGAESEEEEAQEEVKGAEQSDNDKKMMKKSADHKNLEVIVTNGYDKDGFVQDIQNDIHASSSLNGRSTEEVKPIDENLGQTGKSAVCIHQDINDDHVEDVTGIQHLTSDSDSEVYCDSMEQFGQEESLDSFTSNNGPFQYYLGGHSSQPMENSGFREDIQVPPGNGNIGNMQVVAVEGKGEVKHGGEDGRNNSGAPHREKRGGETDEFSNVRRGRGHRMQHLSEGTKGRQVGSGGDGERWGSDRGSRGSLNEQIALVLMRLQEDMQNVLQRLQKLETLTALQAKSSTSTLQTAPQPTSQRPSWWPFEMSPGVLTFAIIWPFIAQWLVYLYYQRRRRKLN
UniProt Q8WX92, whole entry: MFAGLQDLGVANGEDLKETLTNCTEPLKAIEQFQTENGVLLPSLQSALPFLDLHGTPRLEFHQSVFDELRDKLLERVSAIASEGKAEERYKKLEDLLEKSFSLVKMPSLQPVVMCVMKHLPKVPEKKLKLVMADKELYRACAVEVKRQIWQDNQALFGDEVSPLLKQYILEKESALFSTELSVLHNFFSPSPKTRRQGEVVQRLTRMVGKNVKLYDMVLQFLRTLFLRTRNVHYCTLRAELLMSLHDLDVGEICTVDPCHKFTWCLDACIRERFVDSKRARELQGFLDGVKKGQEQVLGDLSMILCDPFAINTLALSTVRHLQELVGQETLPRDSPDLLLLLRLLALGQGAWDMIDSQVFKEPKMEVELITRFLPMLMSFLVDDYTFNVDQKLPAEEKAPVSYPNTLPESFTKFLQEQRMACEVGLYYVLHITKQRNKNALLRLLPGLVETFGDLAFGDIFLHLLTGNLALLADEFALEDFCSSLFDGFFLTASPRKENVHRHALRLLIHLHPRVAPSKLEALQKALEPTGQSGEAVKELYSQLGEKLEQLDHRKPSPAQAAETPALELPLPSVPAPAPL
UniProt Q9Y483: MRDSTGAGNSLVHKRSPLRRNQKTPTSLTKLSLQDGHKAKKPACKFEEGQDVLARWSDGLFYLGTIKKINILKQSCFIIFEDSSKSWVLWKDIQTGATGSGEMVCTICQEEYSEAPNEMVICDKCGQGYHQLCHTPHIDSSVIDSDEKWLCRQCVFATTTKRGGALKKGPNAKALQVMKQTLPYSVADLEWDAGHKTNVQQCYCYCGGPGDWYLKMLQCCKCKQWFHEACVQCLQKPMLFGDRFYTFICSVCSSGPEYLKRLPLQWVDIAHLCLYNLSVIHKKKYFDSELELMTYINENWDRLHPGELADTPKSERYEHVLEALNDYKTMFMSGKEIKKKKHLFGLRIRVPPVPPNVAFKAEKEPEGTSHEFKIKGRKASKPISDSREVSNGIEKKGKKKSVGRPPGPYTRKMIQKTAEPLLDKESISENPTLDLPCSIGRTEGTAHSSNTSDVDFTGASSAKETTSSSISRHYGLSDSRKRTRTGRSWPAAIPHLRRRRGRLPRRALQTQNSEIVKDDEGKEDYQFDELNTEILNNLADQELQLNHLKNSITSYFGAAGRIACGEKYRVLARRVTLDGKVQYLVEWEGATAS

Target: A0A0G2JJ47|A0A0G2JP87|A2ABH1 and related entries (UniProt Q8TD31)
- NP40-soluble protein abundance (concentration: 0.1mM): 1.06 ± 0.18
- NP40-soluble protein abundance (concentration: 0.5mM): 1.09 ± 0.18

Target: A0A0G2JNU3|A6H8Y1 and related entries (UniProt A6H8Y1)
- NP40-soluble protein abundance (concentration: 0.1mM): 1 ± 0.033
- NP40-soluble protein abundance (concentration: 0.5mM): 0.971 ± 0.049

Target: B4DLJ1 and related entries (UniProt Q15853)
- NP40-soluble protein abundance (concentration: 0.1mM): 0.987 ± 0.043
- NP40-soluble protein abundance (concentration: 0.5mM): 1 ± 0.042

Target: B1ALH6 and related entries (UniProt O14832)
- NP40-soluble protein abundance (concentration: 0.1mM): 0.987 ± 0.078
- NP40-soluble protein abundance (concentration: 0.5mM): 1.04 ± 0.072

Target: C9IZQ1 and related entries (UniProt P43307)
- NP40-soluble protein abundance (concentration: 0.1mM): 0.953 ± 0.077
- NP40-soluble protein abundance (concentration: 0.5mM): 0.949 ± 0.081

Target: A0A0J9YWL0|Q9Y4K1 (UniProt Q9Y4K1)
- NP40-soluble protein abundance (concentration: 0.1mM): 1 ± 0.049
- NP40-soluble protein abundance (concentration: 0.5mM): 1.02 ± 0.045

Target: A8K878 and related entries (UniProt P55145)
- NP40-soluble protein abundance (concentration: 0.1mM): 0.862 ± 0.098
- NP40-soluble protein abundance (concentration: 0.5mM): 0.86 ± 0.13

Target: B1AJU2 and related entries (UniProt Q9Y228)
- NP40-soluble protein abundance (concentration: 0.1mM): 0.886 ± 0.13
- NP40-soluble protein abundance (concentration: 0.5mM): 0.857 ± 0.15

Target: A0A0J9YXJ0|E9PC62 and related entries (UniProt O95319)
- NP40-soluble protein abundance (concentration: 0.1mM): 0.989 ± 0.029
- NP40-soluble protein abundance (concentration: 0.5mM): 0.989 ± 0.048

Target: D6R9V8 and related entries (UniProt Q9UKY7)
- NP40-soluble protein abundance (concentration: 0.1mM): 0.879 ± 0.053
- NP40-soluble protein abundance (concentration: 0.5mM): 0.896 ± 0.051

Target: B5MCW3 and related entries (UniProt Q9H0E9)
- NP40-soluble protein abundance (concentration: 0.1mM): 0.985 ± 0.041
- NP40-soluble protein abundance (concentration: 0.5mM): 0.981 ± 0.062

Target: D6RC04 and related entries (UniProt Q9Y6G5)
- NP40-soluble protein abundance (concentration: 0.1mM): 0.966 ± 0.035
- NP40-soluble protein abundance (concentration: 0.5mM): 0.934 ± 0.051

Target: B7Z2R7 and related entries (UniProt Q5T8D3)
- NP40-soluble protein abundance (concentration: 0.1mM): 0.977 ± 0.033
- NP40-soluble protein abundance (concentration: 0.5mM): 0.9806 ± 0.0056

Target: A6NHG4 and related entries (UniProt P30046+B5MC82+A6NHG4)
- NP40-soluble protein abundance (concentration: 0.1mM): 1.023 ± 0.0049
- NP40-soluble protein abundance (concentration: 0.5mM): 1.02 ± 0.02

Target: C9JA08 and related entries (UniProt Q96D46)
- NP40-soluble protein abundance (concentration: 0.1mM): 1.01 ± 0.041
- NP40-soluble protein abundance (concentration: 0.5mM): 0.98 ± 0.03

Target: B4DL54 and related entries (UniProt Q8WUH1)
- NP40-soluble protein abundance (concentration: 0.1mM): 1.04 ± 0.063
- NP40-soluble protein abundance (concentration: 0.5mM): 1.03 ± 0.087

Target: A0A0G2JK44|P25440 and related entries (UniProt P25440)
- NP40-soluble protein abundance (concentration: 0.1mM): 0.971 ± 0.045
- NP40-soluble protein abundance (concentration: 0.5mM): 0.954 ± 0.064

Target: D3YTB5 and related entries (UniProt P51617)
- NP40-soluble protein abundance (concentration: 0.1mM): 1.06 ± 0.02
- NP40-soluble protein abundance (concentration: 0.5mM): 1.08 ± 0.057

Target: A0A0U1RQS4|A0A0U1RR93|Q9BYB0 and related entries (UniProt Q9BYB0)
- NP40-soluble protein abundance (concentration: 0.1mM): 1.01 ± 0.017
- NP40-soluble protein abundance (concentration: 0.5mM): 0.958 ± 0.028

Target: C9J494 and related entries (UniProt Q9H000)
- NP40-soluble protein abundance (concentration: 0.1mM): 1.05 ± 0.05
- NP40-soluble protein abundance (concentration: 0.5mM): 1.04 ± 0.054

Target: C9JKL2 and related entries (UniProt O95772)
- NP40-soluble protein abundance (concentration: 0.1mM): 0.972 ± 0.019
- NP40-soluble protein abundance (concentration: 0.5mM): 0.92 ± 0.042

Target: A0A0U1RR06|A6NM71 and related entries (UniProt Q9Y484)
- NP40-soluble protein abundance (concentration: 0.1mM): 1.09 ± 0.17
- NP40-soluble protein abundance (concentration: 0.5mM): 1.03 ± 0.017

Target: D6REA1 and related entries (UniProt Q9H173)
- NP40-soluble protein abundance (concentration: 0.1mM): 0.947 ± 0.11
- NP40-soluble protein abundance (concentration: 0.5mM): 0.923 ± 0.027
- NP40-soluble protein abundance (concentration: 1mM): 0.922 ± 0.083
- NP40-soluble protein abundance (concentration: 2mM): 0.938 ± 0.046
- NP40-soluble protein abundance (concentration: 4mM): 0.92 ± 0.083
- NP40-soluble protein abundance (concentration: 6mM): 0.929 ± 0.11
- NP40-soluble protein abundance (concentration: 8mM): 0.917 ± 0.063
- NP40-soluble protein abundance (concentration: 10mM): 0.8663 ± 0.0052

Target: C9JNZ0 and related entries (UniProt Q96IW7)
- NP40-soluble protein abundance (concentration: 0.1mM): 1.02 ± 0.011
- NP40-soluble protein abundance (concentration: 0.5mM): 1.09 ± 0.07

Target: A0A0X1KG71 (UniProt Q8WX92)
- NP40-soluble protein abundance (concentration: 0.1mM): 0.966 ± 0.011
- NP40-soluble protein abundance (concentration: 0.5mM): 1 ± 0.015
- NP40-soluble protein abundance (concentration: 1mM): 0.9808 ± 0.0083
- NP40-soluble protein abundance (concentration: 2mM): 0.989 ± 0.012
- NP40-soluble protein abundance (concentration: 4mM): 0.9482 ± 0.0081
- NP40-soluble protein abundance (concentration: 6mM): 0.959 ± 0.033
- NP40-soluble protein abundance (concentration: 8mM): 0.959 ± 0.022
- NP40-soluble protein abundance (concentration: 10mM): 0.956 ± 0.023

Target: B0QY89 and related entries (UniProt Q9Y262)
- NP40-soluble protein abundance (concentration: 0.1mM): 1.01 ± 0.065
- NP40-soluble protein abundance (concentration: 0.5mM): 1.01 ± 0.05
- NP40-soluble protein abundance (concentration: 1mM): 1.09 ± 0.093
- NP40-soluble protein abundance (concentration: 2mM): 1.25 ± 0.15
- NP40-soluble protein abundance (concentration: 4mM): 1.23 ± 0.075
- NP40-soluble protein abundance (concentration: 6mM): 1.35 ± 0.072
- NP40-soluble protein abundance (concentration: 8mM): 1.6 ± 0.1
- NP40-soluble protein abundance (concentration: 10mM): 1.7 ± 0.12

Target: A0A0G2JPP5|Q14160 and related entries (UniProt Q14160)
- NP40-soluble protein abundance (concentration: 0.1mM): 1.01 ± 0.018
- NP40-soluble protein abundance (concentration: 0.5mM): 0.986 ± 0.064
- NP40-soluble protein abundance (concentration: 1mM): 0.973 ± 0.016
- NP40-soluble protein abundance (concentration: 2mM): 0.96 ± 0.02
- NP40-soluble protein abundance (concentration: 4mM): 0.9694 ± 0.0075
- NP40-soluble protein abundance (concentration: 6mM): 0.98 ± 0.023
- NP40-soluble protein abundance (concentration: 8mM): 0.93 ± 0.021
- NP40-soluble protein abundance (concentration: 10mM): 0.941 ± 0.031

Target: B4DHE8 and related entries (UniProt Q96DH6)
- NP40-soluble protein abundance (concentration: 0.1mM): 1.04 ± 0.072
- NP40-soluble protein abundance (concentration: 0.5mM): 1.04 ± 0.08
- NP40-soluble protein abundance (concentration: 1mM): 1.02 ± 0.045
- NP40-soluble protein abundance (concentration: 2mM): 1.02 ± 0.058
- NP40-soluble protein abundance (concentration: 4mM): 0.994 ± 0.065
- NP40-soluble protein abundance (concentration: 6mM): 0.993 ± 0.08
- NP40-soluble protein abundance (concentration: 8mM): 0.983 ± 0.071
- NP40-soluble protein abundance (concentration: 10mM): 0.972 ± 0.079

Target: A2ABJ5 and related entries (UniProt O75955)
- NP40-soluble protein abundance (concentration: 0.1mM): 1.01 ± 0.028
- NP40-soluble protein abundance (concentration: 0.5mM): 0.995 ± 0.04
- NP40-soluble protein abundance (concentration: 1mM): 1.03 ± 0.047
- NP40-soluble protein abundance (concentration: 2mM): 0.948 ± 0.029
- NP40-soluble protein abundance (concentration: 4mM): 0.926 ± 0.012
- NP40-soluble protein abundance (concentration: 6mM): 0.925 ± 0.11
- NP40-soluble protein abundance (concentration: 8mM): 0.931 ± 0.071
- NP40-soluble protein abundance (concentration: 10mM): 0.916 ± 0.052

Target: B4DZG1 and related entries (UniProt Q9Y483)
- NP40-soluble protein abundance (concentration: 0.1mM): 1.03 ± 0.012
- NP40-soluble protein abundance (concentration: 0.5mM): 1.14 ± 0.051
- NP40-soluble protein abundance (concentration: 1mM): 1.19 ± 0.023
- NP40-soluble protein abundance (concentration: 2mM): 1.25 ± 0.027
- NP40-soluble protein abundance (concentration: 4mM): 1.36 ± 0.057
- NP40-soluble protein abundance (concentration: 6mM): 1.41 ± 0.082
- NP40-soluble protein abundance (concentration: 8mM): 1.5 ± 0.032
- NP40-soluble protein abundance (concentration: 10mM): 1.56 ± 0.049

Target: B7ZC38 and related entries (UniProt Q9NR46)
- NP40-soluble protein abundance (concentration: 0.1mM): 0.96 ± 0.024
- NP40-soluble protein abundance (concentration: 0.5mM): 0.961 ± 0.027
- NP40-soluble protein abundance (concentration: 1mM): 0.993 ± 0.015
- NP40-soluble protein abundance (concentration: 2mM): 0.977 ± 0.029
- NP40-soluble protein abundance (concentration: 4mM): 0.98 ± 0.033
- NP40-soluble protein abundance (concentration: 6mM): 0.981 ± 0.021
- NP40-soluble protein abundance (concentration: 8mM): 0.988 ± 0.056
- NP40-soluble protein abundance (concentration: 10mM): 0.936 ± 0.039

Target: A0A0J9YW36|Q9NZ72 and related entries (UniProt Q9NZ72)
- NP40-soluble protein abundance (concentration: 0.1mM): 0.929 ± 0.12
- NP40-soluble protein abundance (concentration: 0.5mM): 0.902 ± 0.04
- NP40-soluble protein abundance (concentration: 1mM): 1.03 ± 0.25
- NP40-soluble protein abundance (concentration: 2mM): 1.21 ± 0.52
- NP40-soluble protein abundance (concentration: 4mM): 0.979 ± 0.12
- NP40-soluble protein abundance (concentration: 6mM): 1.18 ± 0.36
- NP40-soluble protein abundance (concentration: 8mM): 0.945 ± 0.1
- NP40-soluble protein abundance (concentration: 10mM): 0.863 ± 0.05

Target: A0A0U1RRK1|F6XEV2 and related entries (UniProt Q9BPX6)
- NP40-soluble protein abundance (concentration: 0.1mM): 1.01 ± 0.048
- NP40-soluble protein abundance (concentration: 0.5mM): 1.02 ± 0.064
- NP40-soluble protein abundance (concentration: 1mM): 1.01 ± 0.073
- NP40-soluble protein abundance (concentration: 2mM): 1.01 ± 0.045
- NP40-soluble protein abundance (concentration: 4mM): 1.04 ± 0.038
- NP40-soluble protein abundance (concentration: 6mM): 1.05 ± 0.067
- NP40-soluble protein abundance (concentration: 8mM): 1.07 ± 0.066
- NP40-soluble protein abundance (concentration: 10mM): 1.08 ± 0.058

Source: the supplement of paper PMC6411743
